In PMC10314921, “Eltrombopag directly activates BAK and induces apoptosis” (Cell Death & Disease, 2023):
These are yes or no findings as the source states them, for the method shown. Some binding calls cover weakened binding; strength is not graded here.

Experiments:
[1] = biological target: BAKΔTM F157A (human) (UniProt Q16611); experiment: SEC; BAKΔTM without Eltro (DMSO control), CHAPS buffer, 1 h at 25 °C, Superdex75 on an FPLC, absorbance at 280 nm; oligomers against monomer; both purified
[2] = biological target: BAKΔTM D160A (human) (UniProt Q16611); experiment: as above
[3] = biological target: BAKΔTM H165A (human) (UniProt Q16611); experiment: as above
[4] = biological target: BAK lacking its transmembrane domain (BAKΔTM), wild type (human) (UniProt Q16611); experiment: SEC; BAKΔTM incubated with BID BH3 peptide (known BAK activator); size exclusion chromatography, oligomers against monomer; conditions not shown (Supplementary Figs. S1c, S4); both purified
[5] = biological target: BAK lacking its transmembrane domain (BAKΔTM), wild type (human) (UniProt Q16611); experiment: SEC; BAKΔTM without Eltro (DMSO control), CHAPS buffer, 1 h at 25 °C, Superdex75 on an FPLC, absorbance at 280 nm; oligomers against monomer; both purified
[6] = biological target: BAKΔTM R156A (human) (UniProt Q16611); experiment: SEC; BAKΔTM incubated with BID BH3 peptide (known BAK activator); size exclusion chromatography, oligomers against monomer; conditions not shown (Supplementary Figs. S1c, S4); both purified
[7] = biological target: BAKΔTM R156E (human) (UniProt Q16611); experiment: as above
[8] = biological target: BAKΔTM Y108A (human) (UniProt Q16611); experiment: SEC; BAKΔTM incubated with Eltro (1.7 mM or 3.4 mM for the wild type; 'indicated concentrations' for the mutants), CHAPS buffer, 1 h at 25 °C, Superdex75 on an FPLC, absorbance at 280 nm; oligomers against monomer; both purified

B1: BAKΔTM F157A (domain or fragment, UniProt Q16611 16-186)
chain: EPALPSASEEQVAQDTEEVFRSYVFYRHQQEQEAEGVAAPADPEMVTLPLQPSSTMGQVGRQLAIIGDDINRRYDSEFQTMLQHLQPTAENAYEYFTKIATSLFESGINWGRVVALLGFGYRLALHVYQHGLTGFLGQVTRAVVDFMLHHCIARWIAQRGGWVAALNLGNG
For B1, the binding [1] was “binds”.

B2: BAKΔTM D160A (domain or fragment, UniProt Q16611 16-186)
chain: EPALPSASEEQVAQDTEEVFRSYVFYRHQQEQEAEGVAAPADPEMVTLPLQPSSTMGQVGRQLAIIGDDINRRYDSEFQTMLQHLQPTAENAYEYFTKIATSLFESGINWGRVVALLGFGYRLALHVYQHGLTGFLGQVTRFVVAFMLHHCIARWIAQRGGWVAALNLGNG
With B2 the binding [2] was “binds”.

B3: BAKΔTM H165A (domain or fragment, UniProt Q16611 16-186)
chain: EPALPSASEEQVAQDTEEVFRSYVFYRHQQEQEAEGVAAPADPEMVTLPLQPSSTMGQVGRQLAIIGDDINRRYDSEFQTMLQHLQPTAENAYEYFTKIATSLFESGINWGRVVALLGFGYRLALHVYQHGLTGFLGQVTRFVVDFMLHACIARWIAQRGGWVAALNLGNG
In the case of B3, the binding [3] is reported as “binds”.

B4: BAK lacking its transmembrane domain (BAKΔTM), wild type (domain or fragment, UniProt Q16611 16-186)
chain: EPALPSASEEQVAQDTEEVFRSYVFYRHQQEQEAEGVAAPADPEMVTLPLQPSSTMGQVGRQLAIIGDDINRRYDSEFQTMLQHLQPTAENAYEYFTKIATSLFESGINWGRVVALLGFGYRLALHVYQHGLTGFLGQVTRFVVDFMLHHCIARWIAQRGGWVAALNLGNG
B4 was tested, and the binding [4] was “binds” and the binding [5] was “binds weakly”.

B5: BAKΔTM R156A (domain or fragment, UniProt Q16611 16-186)
chain: EPALPSASEEQVAQDTEEVFRSYVFYRHQQEQEAEGVAAPADPEMVTLPLQPSSTMGQVGRQLAIIGDDINRRYDSEFQTMLQHLQPTAENAYEYFTKIATSLFESGINWGRVVALLGFGYRLALHVYQHGLTGFLGQVTAFVVDFMLHHCIARWIAQRGGWVAALNLGNG
With B5 the binding [6] was “binds”.

B6: BAKΔTM R156E (domain or fragment, UniProt Q16611 16-186)
chain: EPALPSASEEQVAQDTEEVFRSYVFYRHQQEQEAEGVAAPADPEMVTLPLQPSSTMGQVGRQLAIIGDDINRRYDSEFQTMLQHLQPTAENAYEYFTKIATSLFESGINWGRVVALLGFGYRLALHVYQHGLTGFLGQVTEFVVDFMLHHCIARWIAQRGGWVAALNLGNG
In the case of B6, the binding [7] is reported as “binds”.

B7: BAKΔTM Y108A (domain or fragment, UniProt Q16611 16-186)
chain: EPALPSASEEQVAQDTEEVFRSYVFYRHQQEQEAEGVAAPADPEMVTLPLQPSSTMGQVGRQLAIIGDDINRRYDSEFQTMLQHLQPTAENAAEYFTKIATSLFESGINWGRVVALLGFGYRLALHVYQHGLTGFLGQVTRFVVDFMLHHCIARWIAQRGGWVAALNLGNG
For B7, the binding [8] was “binds”.
